At least one peptide structure holds a part that was inferred or is arguable (an end, a ring closure or a residue). Starred links: 1 amine or outer side, 2 acyl side, 3 side chain; linkers in the order of their positions; H or OH if unused. Positions of bridges follow the written chain, without caps; N, C: chain ends. Non-standard residues stand in square brackets, D forms with d. Residues, ends and D or L forms follow the SMILES beside them. Groups on a side chain read outwards from the residue. *: point of attachment. Me3N+(CH2)2O(CH2)2O(CH2)2CO = C[N+](C)(C)CCOCCOCCC(=O)*; Trp(7-Me) = Cc1cccc2c(C[C@H](N)C(=O)O)c[nH]c12; X71 = C[N+](C)(C)CC(F)(F)C(F)(F)C(F)(F)C*; γGlu = O=C(O)[C@H](CCC(=O)[*:2])N[*:1]; 2Nal = N[C@@H](Cc1ccc2ccccc2c1)C(=O)O; 3Pal = N[C@@H](Cc1cccnc1)C(=O)O; Myristoyl = CCCCCCCCCCCCCC(=O)*; Pen = CC(C)(S)[C@H](N)C(=O)O; Thp = NC1(C(=O)O)CCOCC1; AEEA = NCCOCCOCC(=O)O; Sar = CNCC(=O)O
Biological target: T1, IL-23R (Homo sapiens, UniProt Q5VWK5)
T1 construct: host or cells: HEK293
T1 sequence (Q5VWK5 24-629): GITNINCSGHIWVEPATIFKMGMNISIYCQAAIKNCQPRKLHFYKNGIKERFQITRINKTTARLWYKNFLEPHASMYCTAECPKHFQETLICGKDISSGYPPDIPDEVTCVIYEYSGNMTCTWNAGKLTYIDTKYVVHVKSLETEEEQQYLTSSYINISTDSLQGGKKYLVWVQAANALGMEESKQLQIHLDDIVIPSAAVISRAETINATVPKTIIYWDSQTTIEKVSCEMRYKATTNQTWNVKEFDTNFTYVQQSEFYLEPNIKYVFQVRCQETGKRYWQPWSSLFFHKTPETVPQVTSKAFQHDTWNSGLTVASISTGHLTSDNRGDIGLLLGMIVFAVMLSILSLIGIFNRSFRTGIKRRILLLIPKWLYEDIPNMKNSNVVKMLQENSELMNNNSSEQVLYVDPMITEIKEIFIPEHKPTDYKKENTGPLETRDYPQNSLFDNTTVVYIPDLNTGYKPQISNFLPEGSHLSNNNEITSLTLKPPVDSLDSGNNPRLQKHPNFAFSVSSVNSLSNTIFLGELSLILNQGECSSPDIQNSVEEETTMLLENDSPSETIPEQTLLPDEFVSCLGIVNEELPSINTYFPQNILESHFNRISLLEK
Assay: IL23R Reporter Assay
Format: cell-based
Settings: read-out: IL23R Reporter Assay (micromolar); HEK293 cells containing IL-23R, IL-12RP1 and STAT-inducible firefly luciferase reporter; 10 ng/mL IL-23 (EC90); 5 h at 37° C.

Question: Which IC50 does the source give for `CCCCCCCCCCCCCC(=O)N[C@@H](CCC(=O)NCCOCCOCC(=O)NCCOCCOCC(=O)NCCCC[C@@H]1NC(=O)[C@H](Cc2c[nH]c3c(C)cccc23)NC(=O)[C@H]([C@@H](C)O)NC(=O)[C@H](CC(=O)N(C)C)NC(=O)[C@@H](NC(=O)CCOCCOCC[N+](C)(C)C)C(C)(C)SSC(C)(C)[C@@H](C(=O)N[C@@H](Cc2ccc(OCC(F)(F)C(F)(F)C(F)(F)C[N+](C)(C)C)cc2)C(=O)N[C@@H](Cc2ccc3ccccc3c2)C(=O)NC2(C(=O)N[C@@H](CCCCNC(=O)COCCOCCNC(=O)COCCOCCNC(=O)CC[C@H](NC(=O)CCCCCCCCCCCCC)C(=O)O)C(=O)N[C@@H](CC(N)=O)C(=O)N[C@@H](Cc3cccnc3)C(=O)N(C)CC(=O)N(C)C)CCOCC2)NC1=O)C(=O)O` [compound 410, cPEG3aCO-Pen(3)-N(N(Me)2)-T-7MeW-K(PEG2PEG2gEC14)-Pen(3)-TMAPF-2Nal-THP-K(PEG2PEG2gEC14)-N-3Pya-Sar-CON(Me)2] ({Me3N+(CH2)2O(CH2)2O(CH2)2CO}-[Pen]D(NMe2)T[Trp(7-Me)]K([AEEA-AEEA-γGlu-Myristoyl])[Pen]Y(X71)[2Nal][Thp]K([AEEA-AEEA-γGlu-Myristoyl])N[3Pal][Sar]-NMe2; disulfide 1-6) here?
Answer: 0.32 µM

From US20260022143A1, “Cyclic Peptide Inhibitors of IL-23” (JANSSEN PHARMACEUTICA NV, priority 2022, published 2026)
